Results from US10414821.
Results are given in words; binding and its absence hold for the method and conditions named. Some binding calls cover weakened binding; strength is not graded here.

The chains behind the UniProt entries cited, without tags or fusion partners. Where a name states a change or a piece, a line headed by the entry shows the natural chain unless it says otherwise. Residues count along the entry.
UniProt Q15116, residues 25-170: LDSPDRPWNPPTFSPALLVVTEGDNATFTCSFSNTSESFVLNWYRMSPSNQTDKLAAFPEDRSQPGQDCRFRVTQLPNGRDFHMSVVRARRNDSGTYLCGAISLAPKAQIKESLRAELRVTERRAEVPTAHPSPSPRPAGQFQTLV

What was measured:
[1] = molecular target: purified recombinant PD-1 fusion protein (Sino Biological Inc, Cat #: 10377-H08H) (human) (UniProt Q15116); assay: ELISA and Blitz, Example 5
[2] = molecular target: purified recombinant PD-1 fusion protein (Sino Biological Inc, Cat #: 10377-H08H) (human) (UniProt Q15116); assay: ELISA on coated recombinant PD-1 fusion protein (FIG. 1)

B1: BA08-1 (antibody, V domains shown)
VH: QVQLVQSGAEVKKPGASVKVSCKASGYTFTSYYMYWVRQAPGQGLEWMGGVNPSNGGTNFNEKFKSRVTITADKSTSTAYMELSSLRSEDTAVYYCARRDYRYDMGFDYWGQGTTVTVSS
VL: EIVLTQSPATLSLSPGERATISCRASKGVSTSGYSYLHWYQQKPGQAPRLLIYLASYLESGVPARFSGSGSGTDFTLTISSLEPEDFATYYCQHSRELPLTFGTGTKVEIK
With B1 the binding [1] was “binds” and the binding [2] was “binds”.
